Drawing on PMC10294612, this text covers binding for two molecules.

Experiment [1] deals with T1, HIP-mAID-HA (TgHIP with a C-terminal miniAID-3HA tag) (Toxoplasma gondii (endogenous locus in RHΔKu80-Tir1)) (UniProt S8GK24).
T1 sequence: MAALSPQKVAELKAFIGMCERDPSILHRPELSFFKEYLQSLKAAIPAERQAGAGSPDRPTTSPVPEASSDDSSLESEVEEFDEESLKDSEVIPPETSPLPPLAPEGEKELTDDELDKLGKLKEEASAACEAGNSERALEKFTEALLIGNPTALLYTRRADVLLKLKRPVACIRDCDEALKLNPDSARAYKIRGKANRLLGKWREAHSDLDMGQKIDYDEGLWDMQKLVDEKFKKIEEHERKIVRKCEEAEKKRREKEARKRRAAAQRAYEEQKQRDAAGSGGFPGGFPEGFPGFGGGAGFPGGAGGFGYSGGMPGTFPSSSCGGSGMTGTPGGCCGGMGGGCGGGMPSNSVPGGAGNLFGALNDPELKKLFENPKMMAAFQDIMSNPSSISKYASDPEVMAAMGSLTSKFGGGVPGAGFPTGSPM
Nature of the experiment: co-IP; lysates of HIP-mAID-HA/HOOK-Ty parasites in 1% Triton X-100-PBS; anti-HA or anti-Ty antibodies with Protein A-Sepharose, 4°C; eluate read by Western blot. In general terms: A western blot detects proteins with antibodies after separation by electrophoresis.

Experiment [2] has as its target TgHOOK endogenously Ty-tagged in the HIP-mAID-HA strain (HOOK-Ty) (Toxoplasma gondii (endogenous locus in RHΔKu80-Tir1)). The experiment is described as above.

Results are given in words; binding and its absence hold for the method and conditions named. In cells and extracts the contact can be indirect. Binding can be weak; no strength is given. Where a sequence is shown, tags or fusion partners need not be part of it.

Take “TgHOOK endogenously Ty-tagged in the HIP-mAID-HA strain (HOOK-Ty)”: the binding result in experiment [1] is reported as “binds”.

B1: HIP-mAID-HA (TgHIP with a C-terminal miniAID-3HA tag) (protein, UniProt S8GK24 1-425)
chain: T1 sequence
With B1, the binding result in experiment [2] is given as “binds”.
